Measured values published in patent US20240423973A1 (VINCERX PHARMA GMBH, priority 2021, published 2024).

Assay: general procedure: solution-phase peptide synthesis; HATU / N,N-diisopropylethylamine; EDCI/HOBt; NHS active esters
Settings: trifluoroacetic acid salt
[1] = late stage modification step, LC-MS

Substance | final purity (method not given) (coupling step, LC-MS) | step yield (coupling step) [%] | step yield (late stage modification step) | other results
benzyl N-(tert-butoxycarbonyl)-N-methylglycyl-N-methylglycyl-N-methylglycyl-N-methylglycinate | 97% | 96 |  | 
(4S)-4,11-diethyl-3,14-dioxo-3,4,12,14-tetrahydro-1H-pyrano[3′,4′:6,7]indolizino[1,2-b]quinolin-4-yl N^2-{13-[4-({[(1R)-2-carboxy-1-{3-[({3-[(propylcarbamoyl)amino]phenyl}sulfonyl)amino]phenyl}ethyl]carbamoyl}amino)anilino]-3,6,9-trimethyl-13-oxo-12-aza-3,6,9-triazoniatridecan-1-oyl}-L-asparaginyl-L-prolyl-L-valinate trichloride [B4b] |  |  | 86% | final purity (method not given) [1]: 100% purity
trifluoroacetic acid-benzyl N-methylglycyl-N-methylglycyl-N-methylglycyl-N-methylglycinate (1/1) |  |  | 100% yield | crude LC-MS purity [1]: 100% purity
Trisodium (4S)-4,11-diethyl-3,14-dioxo-3,4,12,14-tetrahydro-1H-pyrano[3′,4′:6,7]indolizino [1,2-b]quinoline-4-yl 1-[(2S)-15-{[N^2,N^6-bis({4-[({(1R)-2-carboxylato-1-[3-({3-[(propylcarbamoyl)amino]benzene-1-sulfonyl}amino)phenyl]ethyl}carbamoyl)amino]phenyl} carbamoyl)-L-lysyl]amino}-2-(carboxylatomethyl)-4-oxo-7,10,13-trioxa-3-azapentadecanan-1-oyl]-L-prolyl-L-valinate |  |  |  | final purity (method not given) (conjugation step, LC-MS): 92% purity; conjugation yield (conjugation step): 41%
(4S)-4,11-diethyl-3,14-dioxo-3,4,12,14-tetrahydro-1H-pyrano[3′,4′:6,7]indolizino[1,2-b]quinolin-4-yl N-methyl-N-(2,2,8,11-tetramethyl-4-oxo-3-oxa-5,8,11-triazatridecan-13-yl) glycyl-L-asparaginyl-L-prolyl-L-valinate | 55% purity | 37 |  | 
(4S)-4,11-Diethyl-3,14-dioxo-3,4,12,14-tetrahydro-1H-pyrano[3′,4′:6,7]indolizino[1,2-b]quinolin-4-yl N-{3-[2-(2-{2-[(N^2,N^6-di-beta-alanyl-L-lysyl)amino]ethoxy} ethoxy)ethoxy] propanoyl}-L-alpha-aspartyl-L-prolyl-L-valinate |  |  |  | crude purity (method not given) [1]: 100% purity
disodium N-({4-[({(1R)-2-carboxylato-1-[3-({3-[(propylcarbamoyl)amino]benzene-1-sulfonyl}amino)phenyl]ethyl}carbamoyl)amino]phenyl}carbamoyl)-N-methylglycyl-N-methylglycyl-N-methylglycyl-N-{(2S)-3-carboxylato-1-[(2S)-2-{[(2S)-1-{[(4S)-4,11-diethyl-3,14-dioxo-3,4,12,14-tetrahydro-1H-pyrano[3′,4′:6,7]indolizino[1,2-b]quinolin-4-yl]oxy}-3-methyl-1-oxobutan-2-yl]carbamoyl}pyrrolidin-1-yl]-1-oxopropan-2-yl}-N2-methylglycinamide |  |  | 97% | final purity (method not given) (conjugation step, LC-MS): 97% purity; conjugation yield (conjugation step): 69% yield; final purity (method not given) [1]: 93% purity
(4S)-4,11-diethyl-3,14-dioxo-3,4,12,14-tetrahydro-1H-pyrano[3′,4′:6,7] indolizino[1,2-b]quinolin-4-yl N-methyl-N-(2-{methyl[2-(methylamino) ethyl]amino}ethyl)glycyl-L-asparaginyl-L-prolyl-L-valinate·trifluoroacetic acid (1:1) |  |  |  | crude purity (method not given) [1]: 100% purity
(4S)-4,11-diethyl-3,14-dioxo-3,4,12,14-tetrahydro-1H-pyrano[3′,4′:6,7]indolizino[1,2-b]quinolin-4-yl N-methyl-N-(2,2,8,11-tetramethyl-4-oxo-3-oxa-5,8,11-triazatridecan-13-yl) glycylglycyl-L-prolyl-L-valinate | 98% purity | 69 |  | 
